Results from patent publication US20170315126A1, “METHOD FOR SCREENING COMPOUND SPECIFICALLY SUPPRESSING FORMATION OF CAVEOLAE OF CANCER CELLS, SCREENING KIT, VECTOR AND TRANSFORMANT TO BE USED IN KIT, AND METHOD FOR SELECTING PATIENT FOR WHOM MOLECULARLY TARGETED DRUG IS INDICATED” (NATIONAL UNIVERSITY CORPORATION NAGOYA INSTITUTE OF …, priority 2014, published 2017).

By UniProt entry, the sequences of proteins in these tests, tags left out. Where a name states a change or a piece, a line headed by the entry shows the natural chain unless it says otherwise.
UniProt Q01973: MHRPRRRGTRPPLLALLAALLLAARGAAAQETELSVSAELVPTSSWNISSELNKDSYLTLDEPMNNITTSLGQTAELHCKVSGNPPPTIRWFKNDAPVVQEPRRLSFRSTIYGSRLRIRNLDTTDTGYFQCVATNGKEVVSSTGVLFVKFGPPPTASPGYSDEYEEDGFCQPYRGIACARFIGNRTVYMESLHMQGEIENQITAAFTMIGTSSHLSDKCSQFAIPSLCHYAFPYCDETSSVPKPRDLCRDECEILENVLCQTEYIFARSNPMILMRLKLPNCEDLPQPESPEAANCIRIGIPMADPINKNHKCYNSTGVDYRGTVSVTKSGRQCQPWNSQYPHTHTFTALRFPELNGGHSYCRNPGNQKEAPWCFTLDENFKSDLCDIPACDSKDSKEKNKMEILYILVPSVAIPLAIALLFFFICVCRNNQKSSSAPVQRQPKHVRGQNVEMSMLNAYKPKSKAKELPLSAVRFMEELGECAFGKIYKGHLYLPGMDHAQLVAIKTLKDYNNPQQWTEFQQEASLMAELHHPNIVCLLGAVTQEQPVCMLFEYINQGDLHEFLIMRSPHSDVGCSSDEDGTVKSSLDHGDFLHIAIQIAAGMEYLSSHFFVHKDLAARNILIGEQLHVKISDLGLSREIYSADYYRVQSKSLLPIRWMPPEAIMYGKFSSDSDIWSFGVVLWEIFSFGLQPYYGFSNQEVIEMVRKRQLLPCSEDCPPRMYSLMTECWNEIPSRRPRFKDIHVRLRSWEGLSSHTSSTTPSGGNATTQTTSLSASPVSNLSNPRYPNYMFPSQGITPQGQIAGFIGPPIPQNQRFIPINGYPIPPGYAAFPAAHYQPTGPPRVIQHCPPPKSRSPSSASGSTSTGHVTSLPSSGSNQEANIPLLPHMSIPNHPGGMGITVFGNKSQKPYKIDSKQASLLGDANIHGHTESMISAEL

Experiments:
[1] = target: T1, Cavin-1-WT (full length of Cavin-1) in a Fluoppi vector (human) (UniProt Q6NZI2); assay: Fluoppi cell staining, legend of FIG. 9(3)
T1 sequence (looked up): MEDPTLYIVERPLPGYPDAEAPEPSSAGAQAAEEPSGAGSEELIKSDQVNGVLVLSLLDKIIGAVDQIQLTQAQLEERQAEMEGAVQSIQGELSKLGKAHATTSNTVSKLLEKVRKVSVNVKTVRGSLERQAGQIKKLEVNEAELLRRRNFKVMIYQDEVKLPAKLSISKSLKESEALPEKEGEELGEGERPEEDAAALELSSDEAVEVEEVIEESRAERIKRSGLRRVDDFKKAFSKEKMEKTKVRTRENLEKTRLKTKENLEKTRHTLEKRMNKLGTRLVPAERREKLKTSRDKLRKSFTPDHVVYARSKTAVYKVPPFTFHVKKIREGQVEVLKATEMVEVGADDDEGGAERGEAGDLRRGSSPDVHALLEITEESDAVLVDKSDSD

[2] = target: T1, Cavin-1-WT (full length of Cavin-1) in a Fluoppi vector (human); assay: Fluoppi image-based protein-protein interaction analysis in HeLa cells
[3] = target: T1, Cavin-1-WT (full length of Cavin-1) in a Fluoppi vector (human); assay: Fluoppi cell staining, legend of FIG. 9(4)

| binding [1] | binding [2] | binding [3] | Substance |
| --- | --- | --- | --- |
| binds | binds |  | ROR1-ICD (intracellular region of ROR1, from amino acid 428 to amino acid 937) (from UniProt Q01973) |
|  | binds | binds | ROR1-TK2+TK3 (region from amino acid 564 to amino acid 746 of ROR1) (from UniProt Q01973) |

No constants are given. Whether binding was seen depends on the method and setting. A result given as binding can be weak or reduced; the word gives no strength.
